Test results reported in patent US20090074747A1 (IRM, published 2009).
Results are given in words; binding and its absence hold for the method and conditions named. A result given as binding can be weak or reduced; the word gives no strength.

Target: cynomolgus TSLPR (cynomolgus)
Assay: ELISA, plate coated with cTSLPR

binding: binds
B1: NV164-1-IgG1 (antibody, V domains shown)
VH: QVQLVQSGSELKKPGASVKVSCKASGYTFTSYGMSWVRQAPGQGLEWMGWVNTNTGNPRYAQGFTGRFVFSLDTSVSTAYLQISSLKAEDTAVYYCAREGFIRTVVGAAGRFVYWGQGTLVTVSS
VL: DIQMTQSPSSLSASVGDRVTITCRASQDIHTRLAWYQQKPGKAPKLLIYWASTLQSGVPSRFSGSGSGTDFTLTISSLQPEDFATYYCQQYSAYPTFGQGTKLEIKG
